Reference: PMC3958431
These are yes or no findings as the source states them, for the method shown. Some entries that bind do so weakly or less than the wild type.

Amino acid sequences for entries named in this document (tags omitted).
UniProt P63279: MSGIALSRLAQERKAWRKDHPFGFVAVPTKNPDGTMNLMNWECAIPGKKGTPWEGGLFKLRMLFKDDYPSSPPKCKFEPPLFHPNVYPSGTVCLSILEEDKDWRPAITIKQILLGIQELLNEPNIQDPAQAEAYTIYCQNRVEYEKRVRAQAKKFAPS

Target: Ubc9, SUMO conjugating enzyme, in the yeast two-hybrid assay (UniProt P63279)
Assay: two-hybrid; yeast two-hybrid assay; unpublished data, no details given

B1: ENS-1 in the yeast two-hybrid assay (protein, UniProt Q98TV2 1-490)
chain: MSNSMASMKSEDVLFDLLEKHGARPSVSGVDWARQNWYNLQSVSDRIRVLQNEARTRAGKGKSFICAVLGAALKAAVEFREEKNSTETQTIQALQESVKVTQELVKSLQSQIRSLEDQLEREKHNSVLLQTAFKELITCKDTGDTVIHSAPQEKVYPQGKLQEVKERLDKLEASPAHIRPLIKTEYTFDNSENLDPQMNVKEIPFSATELAKLKKDFSRSPKESETEYVWRVSLTGGDQILLTEKEAEGYWGPGVFLTTGNNRAPWSLTQRAAYWAGGLNPLERGDPLAITGTIDQLVENVQKAACLQMMYDRKLQPHNESPMMLPVNPERLTPLIRGLPESLKPIGIQLQGKIQAMSQGERTWAALEGSVAPNHQSGPKVWTWGEVAQELINYGRKYGPVVSTCSKFEPRGVRLAVASLASRPPSPRLIGTKKVSSPVKTGTRCIDHKRNGLWTLGWTKGIPRDLMNGLPTVRLEKLVNCWPEQKLKGS
Question: B1 was tested. Which binding did it give?
Answer: binds
